Data as given in PubChem BioAssay AID504793 (Drosophila RNAi Screening Center, 2011)

- Test: 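Whole-genome screen for parts of the DNA damage checkpoint at G2/M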 (primary screen)
- Cell system: Drosophila S2R+ cells
- Knock-down reagent: long dsRNA against Drosophila genes, about 0.25 µg dsRNA per well
- Duration: 4 days of dsRNA, then 4 hours of drug before read-out
- Challenge: doxorubicin 0.5 µM for 4 hours to cause double-strand breaks, in cells also given a low, harmless dose of dsRNA against nbs to sensitise the assay
- Detection: 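Mitotic index as the number of phospho-histone H3-positive cells in each well following doxorubicin, given as raw counts without normalisation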
- Reading the numbers: mitotic cells: higher = more cells in mitosis, weaker G2 arrest
- Rule for the call: 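a call needs confirmation in secondary tests, with other dsRNAs and a check of mitotic timing without damage, not just a high primary count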
- Calls: active = confirmed in follow-up tests; inactive = not confirmed
The deposit covers about 23,000 reagents; shown is a random part of those with a known target gene and a result. Of all reagents, 62 (0.27%) were called active. 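Calls come from follow-up tests whose scores are not deposited, so confirmed genes may have low counts here; counts are not normalised per plate.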 The raw values are shown without normalisation. Unmarked entries are inactive. A plus sign joins genes that one reagent is predicted to hit.

With CG15390 [DRSC00404], what was measured?
mitotic cells, replicate 1: 6

How did the screen score CG14227 [DRSC19584]?
mitotic cells, replicate 1: 14

How did the screen score CG14227 [DRSC29213]?
mitotic cells, replicate 1: 8

Which result is listed for Lamp1 [DRSC03727]?
mitotic cells, replicate 1: 9

With CG5886 [DRSC15908], what was measured?
mitotic cells, replicate 1: 6

What did the screen give for chn (charlatan) [DRSC06086]?
mitotic cells, replicate 1: 6

For chn (charlatan) [DRSC29342], what was measured?
mitotic cells, replicate 1: 3

What did the screen give for Papst2 (PAPS transporter 2) [DRSC10924]?
mitotic cells, replicate 1: 9

With Papst2 (PAPS transporter 2) [DRSC27212], what does the deposit list?
mitotic cells, replicate 1: 8

What is on record for CG33462 [DRSC22902]?
mitotic cells, replicate 1: 16

With PpD6 (Protein phosphatase D6) [DRSC00774], what was measured?
mitotic cells, replicate 1: 2

For PpD6 (Protein phosphatase D6) [DRSC23331], how do the results read?
mitotic cells, replicate 1: 10

For CG32536 + CG32537 [DRSC20074], what does the deposit list?
mitotic cells, replicate 2: 10

What is on record for Df31 (Decondensation factor 31) [DRSC03738]?
mitotic cells, replicate 1: 3

With Df31 (Decondensation factor 31) [DRSC22163], how do the results read?
mitotic cells, replicate 1: 11

Which result is listed for yem (yemanuclein) [DRSC14865]?
mitotic cells, replicate 1: 18

Which result is listed for yem (yemanuclein) [DRSC17097]?
mitotic cells, replicate 1: 11

For fs(1)h (female sterile (1) homeotic) [DRSC18778], what was measured?
mitotic cells, replicate 1: 5; mitotic cells, replicate 2: 15

What did the screen give for fs(1)h (female sterile (1) homeotic) [DRSC29017]?
mitotic cells, replicate 1: 12

What did the screen give for CG11300 [DRSC04104]?
mitotic cells, replicate 1: 11

What did the screen give for Nf1 (Neurofibromin 1) [DRSC16758]?
mitotic cells, replicate 1: 8

With Nf1 (Neurofibromin 1) [DRSC29934], what does the deposit list?
mitotic cells, replicate 1: 14

What is on record for Ythdf (YTH N6-methyladenosine RNA binding protein) [DRSC16036]?
mitotic cells, replicate 1: 7

What is on record for Ythdf (YTH N6-methyladenosine RNA binding protein) [DRSC16037]?
mitotic cells, replicate 1: 18

With Fbxl7 (F-box and leucine-rich repeat protein 7) [DRSC15553], how do the results read?
mitotic cells, replicate 1: 4

For Fbxl7 (F-box and leucine-rich repeat protein 7) [DRSC25664], how do the results read?
mitotic cells, replicate 1: 7

With CCHa1-R (CCHamide-1 receptor) [DRSC06456], what does the deposit list?
mitotic cells, replicate 1: 2

What did the screen give for CCHa1-R (CCHamide-1 receptor) [DRSC06715]?
mitotic cells, replicate 1: 3

With CG17786 [DRSC15270], how do the results read?
mitotic cells, replicate 1: 20

What did the screen give for CG17786 [DRSC25378]?
mitotic cells, replicate 1: 6

How did the screen score CG31495 [DRSC16762]?
mitotic cells, replicate 1: 4

How did the screen score CG31495 [DRSC29177]?
mitotic cells, replicate 1: 5

How did the screen score Vha100-1 (Vacuolar H[+] ATPase 100kD subunit 1) [DRSC14148]?
mitotic cells, replicate 1: 3

With Vha100-1 (Vacuolar H[+] ATPase 100kD subunit 1) [DRSC26617], what does the deposit list?
mitotic cells, replicate 1: 6

With mxt (mextli) [DRSC25001], how do the results read?
mitotic cells, replicate 1: 6

For CG13461 [DRSC10008], how do the results read?
mitotic cells, replicate 1: 4

With CG13461 [DRSC24462], how do the results read?
mitotic cells, replicate 1: 10

Which result is listed for Adk3 (Adenosine kinase 3) [DRSC05917]?
mitotic cells, replicate 1: 6

With Adk3 (Adenosine kinase 3) [DRSC28006], how do the results read?
mitotic cells, replicate 1: 9

With Dcr-2 (Dicer-2) [DRSC06992], what was measured?
mitotic cells, replicate 1: 4

For Dcr-2 (Dicer-2) [DRSC29436], what was measured?
mitotic cells, replicate 1: 3

What is on record for Caf1-105 (Chromatin assembly factor 1, p105 subunit) [DRSC06209]?
mitotic cells, replicate 1: 7

Which result is listed for CG12877 [DRSC14565]?
mitotic cells, replicate 1: 9

Copied from the list.
Result of PpD6 (Protein phosphatase D6) [DRSC00774] under “mitotic cells, replicate 1”: 2
CCHa1-R (CCHamide-1 receptor) [DRSC06715], mitotic cells, replicate 1: 3
Entry of CG17786 [DRSC15270] in “mitotic cells, replicate 1”: 20
